Assay results as given in paper doi:10.1101/2021.04.26.441477.
Results are given in words; binding and its absence hold for the method and conditions named. Binding seen in cells or lysates may run through a third protein. Some entries that bind do so weakly or less than the wild type.

Chains of the proteins cited; added tags and fusions are not shown.
UniProt P09405: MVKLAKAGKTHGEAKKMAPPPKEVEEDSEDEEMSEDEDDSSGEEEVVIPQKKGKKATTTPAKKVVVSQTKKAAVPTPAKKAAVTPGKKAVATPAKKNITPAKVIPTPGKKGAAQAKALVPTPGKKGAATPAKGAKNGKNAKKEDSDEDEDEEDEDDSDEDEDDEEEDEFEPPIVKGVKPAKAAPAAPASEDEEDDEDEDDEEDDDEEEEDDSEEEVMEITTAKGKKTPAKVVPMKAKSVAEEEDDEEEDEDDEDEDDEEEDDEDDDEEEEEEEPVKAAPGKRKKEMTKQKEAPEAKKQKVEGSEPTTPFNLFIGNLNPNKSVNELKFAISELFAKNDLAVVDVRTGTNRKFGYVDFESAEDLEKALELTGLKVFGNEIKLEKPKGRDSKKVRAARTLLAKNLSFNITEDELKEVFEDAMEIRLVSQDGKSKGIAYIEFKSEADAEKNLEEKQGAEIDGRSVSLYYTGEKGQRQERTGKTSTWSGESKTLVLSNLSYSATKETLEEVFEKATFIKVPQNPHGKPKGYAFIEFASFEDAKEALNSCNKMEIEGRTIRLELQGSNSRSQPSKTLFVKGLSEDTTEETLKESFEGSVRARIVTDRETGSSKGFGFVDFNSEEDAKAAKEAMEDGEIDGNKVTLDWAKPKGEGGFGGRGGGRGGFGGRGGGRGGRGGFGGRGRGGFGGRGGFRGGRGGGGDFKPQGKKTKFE

Biological target: Nucleolin (mouse), FLAG-tagged and HA-tagged copies co-expressed in transfected cells (mouse) (UniProt P09405)
Experiment: co-IP

binding: binds
Substance: Nucleolin (mouse), FLAG-tagged and HA-tagged copies co-expressed in transfected cells (from UniProt P09405 1-707)
